Results on two molecules are retold here after patent US20030125523A1 (VEGENICS, published 2003).

Amino acid sequences for entries named in this document (tags omitted). Residues count along the entry.
UniProt O14786, residues 22-923: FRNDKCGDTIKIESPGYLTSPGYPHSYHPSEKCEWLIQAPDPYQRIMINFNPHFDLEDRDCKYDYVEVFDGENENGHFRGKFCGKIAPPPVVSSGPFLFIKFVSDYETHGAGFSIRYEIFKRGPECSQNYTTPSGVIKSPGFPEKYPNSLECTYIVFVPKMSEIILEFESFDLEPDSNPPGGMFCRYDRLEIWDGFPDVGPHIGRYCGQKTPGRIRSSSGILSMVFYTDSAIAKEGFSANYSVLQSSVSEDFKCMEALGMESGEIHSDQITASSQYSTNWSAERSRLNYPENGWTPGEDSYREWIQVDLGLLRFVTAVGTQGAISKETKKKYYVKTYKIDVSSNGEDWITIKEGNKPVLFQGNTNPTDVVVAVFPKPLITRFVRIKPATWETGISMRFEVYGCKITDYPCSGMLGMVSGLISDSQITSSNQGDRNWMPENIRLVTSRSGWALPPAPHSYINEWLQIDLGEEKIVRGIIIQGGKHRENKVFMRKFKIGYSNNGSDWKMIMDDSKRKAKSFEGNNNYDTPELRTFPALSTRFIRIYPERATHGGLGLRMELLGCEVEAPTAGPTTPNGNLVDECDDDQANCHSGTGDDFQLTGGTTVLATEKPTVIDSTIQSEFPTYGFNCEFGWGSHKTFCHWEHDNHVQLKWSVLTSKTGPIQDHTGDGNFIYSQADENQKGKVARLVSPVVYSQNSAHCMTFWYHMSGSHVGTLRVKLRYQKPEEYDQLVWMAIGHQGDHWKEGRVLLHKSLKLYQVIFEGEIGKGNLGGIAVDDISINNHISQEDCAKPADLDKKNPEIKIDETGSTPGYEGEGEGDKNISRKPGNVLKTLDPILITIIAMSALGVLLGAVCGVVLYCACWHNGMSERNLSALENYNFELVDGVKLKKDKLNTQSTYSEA

Results are given in words; binding and its absence hold for the method and conditions named. Some binding calls cover weakened binding; strength is not graded here. For some assays here: Tags and fused reporters may be left off the sequences shown.

The target in experiment [1] is NP-1 expressed on PAE-NP-1 cells (UniProt O14786). Briefly: competition of 125I-hVEGF165 (1 ng/ml) binding to PAE-NP-1 cells.
For experiment [2], the target named is T1, soluble Neuropilin-1-Ig fusion protein (extracellular domain of mouse NP-1 fused to the human IgG Fc-part) (mouse; human) (UniProt P97333).
T1 sequence (looked up): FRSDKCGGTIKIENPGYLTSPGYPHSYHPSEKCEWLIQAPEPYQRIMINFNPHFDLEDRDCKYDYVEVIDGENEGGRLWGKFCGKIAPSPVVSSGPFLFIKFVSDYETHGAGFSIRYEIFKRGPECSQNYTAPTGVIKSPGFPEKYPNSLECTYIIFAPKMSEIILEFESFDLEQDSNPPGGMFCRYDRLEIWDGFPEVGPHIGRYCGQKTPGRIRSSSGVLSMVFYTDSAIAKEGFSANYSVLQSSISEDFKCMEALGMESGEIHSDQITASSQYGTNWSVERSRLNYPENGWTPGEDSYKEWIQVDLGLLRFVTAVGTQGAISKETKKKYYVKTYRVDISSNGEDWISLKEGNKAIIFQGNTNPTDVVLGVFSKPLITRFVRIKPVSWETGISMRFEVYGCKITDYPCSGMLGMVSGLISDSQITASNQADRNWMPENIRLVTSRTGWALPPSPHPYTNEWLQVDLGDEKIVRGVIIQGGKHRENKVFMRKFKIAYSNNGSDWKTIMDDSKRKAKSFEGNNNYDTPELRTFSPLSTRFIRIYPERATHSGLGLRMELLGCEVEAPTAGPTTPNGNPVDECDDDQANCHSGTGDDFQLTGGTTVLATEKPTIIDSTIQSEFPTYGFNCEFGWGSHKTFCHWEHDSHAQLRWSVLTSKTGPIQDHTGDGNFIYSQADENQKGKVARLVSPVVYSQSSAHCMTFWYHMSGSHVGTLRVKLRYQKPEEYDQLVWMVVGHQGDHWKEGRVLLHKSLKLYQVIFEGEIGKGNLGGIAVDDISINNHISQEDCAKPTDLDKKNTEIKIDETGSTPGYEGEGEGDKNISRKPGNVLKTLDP
Briefly: precipitation of 35S-labelled growth factor from conditioned medium with NP-1-Ig on protein A sepharose, SDS-PAGE.

B1: mVEGF164 (ligand, mouse, UniProt Q00731-2 27-190, looked up)
chain: APTTEGEQKSHEVIKFMDVYQRSYCRPIETLVDIFQEYPDEIEYIFKPSCVPLMRCAGCCNDEALECVPTSESNITMQIMRIKPHQSQHIGEMSFLQHSRCECRPKKDRTKPENHCEPCSERRKHLFVQDPQTCKCSCKNTDSRCKARQLELNERTCRCDKPRR
In the case of B1, the binding entry in experiment [1] is given as “binds”.

B2: PlGF-2 (ligand, UniProt P49763-3 19-170, looked up)
chain: LPAVPPQQWALSAGNGSSEVEVVPFQEVWGRSYCRALERLVDVVSEYPSEVEHMFSPSCVSLLRCTGCCGDENLHCVPVETANVTMQLLKIRSGDRPSYVELTFSQHVRCECRPLREKMKPERRRPKGRGKRRREKQRPTDCHLCGDAVPRR
For B2, in experiment [2], the binding result was “binds”.
